Measurements reported in PubChem BioAssay AID602196 (INSERM, 2012)

- Screen: 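Knock-downs that protect lung cancer cells from cisplatin or sensitise them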
- Cell system: human A549 lung cancer cells
- Reagent: siRNA pair against human genes
- Timing: 48 h transfection before cisplatin; time from cisplatin to read-out not stated
- Treatment: cisplatin at a dose killing half of control-siRNA cells; exact dose and duration not given
- Read-out: 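Shift in cisplatin death relative to control siRNA, from -50 (all cells die) to +50 (no cells die); siRNAs harmful on their own scored 0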
- Direction: two-siRNA summed score (-2 to +2): higher = both siRNAs protect from cisplatin killing; -2 means both sensitise; mean protection from cisplatin (shift in death) and protection from cisplatin (shift in death), siRNA C: higher = protection from cisplatin killing
- Active means: 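Each siRNA scores 0 if harmful alone by LDH or WST-1, otherwise +1 if it reduces and -1 if it increases cisplatin killing; a gene is active when both siRNAs agree (sum +2 or -2)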
- Meaning of the calls: active = both siRNAs shift cisplatin killing the same way; inactive = no consistent shift, or siRNA harmful alone
The whole screen tested about 23,000 reagents; shown is a part drawn at random. 455 of them (2%) count as active. 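Active includes both protection and sensitisation; some change values fall well beyond the stated -50 to +50 range.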 A number with no mark means an inactive call. The numbers tell different reagents against one gene apart. Further read-outs or replicates are left out here. Not stated in the record: the amount of reagent.

no.	gene symbol	reagent no.	two-siRNA summed score (-2 to +2)	mean protection from cisplatin (shift in death) (%)	protection from cisplatin (shift in death), siRNA C (%)
1	TNFRSF13C	1	0	-3.8	-36.8
2	ZNF782	1	-1	-9.5	3.4
3	OR2T5	1	0	13	17.9
4	PPDPFL	1	0	24.3	5.5
5	NRARP	1	0	7.9	13
6	EPB41L2	1	0	3.8	-3.6
7	UCMA	1	0	4.2	5.3
8	IGDCC4	1	0	1.8	18.8
9	AKAP5	1	0	5.8	-10.5
10	SLC1A1	1	0	0.5	8.7
11	KCTD1	1	1	12.1	5.5
12	RMI2	1	0	6.1	2.4
13	LOC442096	1	0	13.2	4.9
14	SV2A	1	0	2.2	-3.6
15	LOC440106	1	0	8.1	13.1
16	ALG12	1	0	2	11.6
17	ACP4	1	0	1.6	-11.8
18	TRAF5	1	0	0.9	10.3
19	ZFP2	1	0	-0.5	-7
20	LINC01579	1	0	1.7	12.2
21	TMEM208	1	0	1.3	-0.2
22	MYO19	1	0	-3.3	3.9
23	UPF3A	1	0	4.8	8.6
24	IDUA	1	0	-8	-18
25	ARHGDIA	1	0	0.3	7.1
26	ATP5MC2	1	0	8.5	12.5

Reprinted from the listing for reference:
no.	gene symbol	reagent no.	two-siRNA summed score (-2 to +2)	mean protection from cisplatin (shift in death) (%)	protection from cisplatin (shift in death), siRNA C (%)
4	PPDPFL	1	0	24.3	5.5
5	NRARP	1	0	7.9	13
6	EPB41L2	1	0	3.8	-3.6

The results go on.
no.	gene symbol	reagent no.	two-siRNA summed score (-2 to +2)	mean protection from cisplatin (shift in death) (%)	protection from cisplatin (shift in death), siRNA C (%)
27	OCIAD2	1	0	11.9	17.6
28	OCIAD2	2	1	20	22.4
29	DNAAF8	1	0	9.6	-1.9
30	ARHGAP30	1	0	7.3	10.4
31	LOC256223	1	0	18.1	23.6
32	RAPGEFL1	1	0	-9.3	-13.9
33	LINC01619	1	0	9.2	12.4
34	HSPA4	1	0	3.4	9
35	SLC25A47	1	0	1.3	-6.3
36	LOC388205	1	1	17.3	-5.8
37	FANCD2	1	1	18.7	29.9
38	SPOCD1	1	0	6.1	-2.8
39	LOC440958	1	0	8.9	26.4
40	KLK5	1	0	15.4	13.9
41	LOC442382	1	0	8.5	6.1
42	LINC00705	1	0	4.2	9
43	SH3YL1	1	0	2.2	10.1
44	GPR35	1	-1	-4.2	-17.7
45	STKLD1	1	0	-14	-15.8
46	SLC2A14	1	0	11.8	12.3
47	LOC400669	1	1	5.4	-12.2
48	RASL12	1	0	5.2	-1.6
49	ZNF395	1	0	-0.6	-1.2
50	CLPSL2	1	-1	-8.1	-5.5
51	FGF10	1	0	6	27.6
52	LOC440276	1	1	11.5	13.5
53	LOC441414	1	0	7.3	9
54	RAB17	1	-1	-0.3	-11.3
55	RBM19	1	0	8.1	9.8
56	KCNN1	1	-1	-5.4	-23.7
57	LINC02372	1	0	0.3	9.6
